## Results of single-concentration screens

Sequences of proteins named here, by UniProt entry; tags and fusion partners are left off.
UniProt P9WPC5, whole entry: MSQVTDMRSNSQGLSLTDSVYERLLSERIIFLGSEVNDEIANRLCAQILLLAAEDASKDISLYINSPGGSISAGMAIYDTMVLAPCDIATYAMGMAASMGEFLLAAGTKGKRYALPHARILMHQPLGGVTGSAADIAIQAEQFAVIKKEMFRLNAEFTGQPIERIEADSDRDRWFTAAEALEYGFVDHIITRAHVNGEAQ
UniProt P9WPC3, whole entry partner: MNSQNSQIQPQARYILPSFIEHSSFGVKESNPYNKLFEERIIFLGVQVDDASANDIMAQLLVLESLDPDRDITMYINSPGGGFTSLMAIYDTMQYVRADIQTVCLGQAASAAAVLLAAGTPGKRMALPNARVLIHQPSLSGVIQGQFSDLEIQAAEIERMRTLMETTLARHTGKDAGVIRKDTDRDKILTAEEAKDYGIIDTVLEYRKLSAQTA
UniProt I6X8D2, whole entry: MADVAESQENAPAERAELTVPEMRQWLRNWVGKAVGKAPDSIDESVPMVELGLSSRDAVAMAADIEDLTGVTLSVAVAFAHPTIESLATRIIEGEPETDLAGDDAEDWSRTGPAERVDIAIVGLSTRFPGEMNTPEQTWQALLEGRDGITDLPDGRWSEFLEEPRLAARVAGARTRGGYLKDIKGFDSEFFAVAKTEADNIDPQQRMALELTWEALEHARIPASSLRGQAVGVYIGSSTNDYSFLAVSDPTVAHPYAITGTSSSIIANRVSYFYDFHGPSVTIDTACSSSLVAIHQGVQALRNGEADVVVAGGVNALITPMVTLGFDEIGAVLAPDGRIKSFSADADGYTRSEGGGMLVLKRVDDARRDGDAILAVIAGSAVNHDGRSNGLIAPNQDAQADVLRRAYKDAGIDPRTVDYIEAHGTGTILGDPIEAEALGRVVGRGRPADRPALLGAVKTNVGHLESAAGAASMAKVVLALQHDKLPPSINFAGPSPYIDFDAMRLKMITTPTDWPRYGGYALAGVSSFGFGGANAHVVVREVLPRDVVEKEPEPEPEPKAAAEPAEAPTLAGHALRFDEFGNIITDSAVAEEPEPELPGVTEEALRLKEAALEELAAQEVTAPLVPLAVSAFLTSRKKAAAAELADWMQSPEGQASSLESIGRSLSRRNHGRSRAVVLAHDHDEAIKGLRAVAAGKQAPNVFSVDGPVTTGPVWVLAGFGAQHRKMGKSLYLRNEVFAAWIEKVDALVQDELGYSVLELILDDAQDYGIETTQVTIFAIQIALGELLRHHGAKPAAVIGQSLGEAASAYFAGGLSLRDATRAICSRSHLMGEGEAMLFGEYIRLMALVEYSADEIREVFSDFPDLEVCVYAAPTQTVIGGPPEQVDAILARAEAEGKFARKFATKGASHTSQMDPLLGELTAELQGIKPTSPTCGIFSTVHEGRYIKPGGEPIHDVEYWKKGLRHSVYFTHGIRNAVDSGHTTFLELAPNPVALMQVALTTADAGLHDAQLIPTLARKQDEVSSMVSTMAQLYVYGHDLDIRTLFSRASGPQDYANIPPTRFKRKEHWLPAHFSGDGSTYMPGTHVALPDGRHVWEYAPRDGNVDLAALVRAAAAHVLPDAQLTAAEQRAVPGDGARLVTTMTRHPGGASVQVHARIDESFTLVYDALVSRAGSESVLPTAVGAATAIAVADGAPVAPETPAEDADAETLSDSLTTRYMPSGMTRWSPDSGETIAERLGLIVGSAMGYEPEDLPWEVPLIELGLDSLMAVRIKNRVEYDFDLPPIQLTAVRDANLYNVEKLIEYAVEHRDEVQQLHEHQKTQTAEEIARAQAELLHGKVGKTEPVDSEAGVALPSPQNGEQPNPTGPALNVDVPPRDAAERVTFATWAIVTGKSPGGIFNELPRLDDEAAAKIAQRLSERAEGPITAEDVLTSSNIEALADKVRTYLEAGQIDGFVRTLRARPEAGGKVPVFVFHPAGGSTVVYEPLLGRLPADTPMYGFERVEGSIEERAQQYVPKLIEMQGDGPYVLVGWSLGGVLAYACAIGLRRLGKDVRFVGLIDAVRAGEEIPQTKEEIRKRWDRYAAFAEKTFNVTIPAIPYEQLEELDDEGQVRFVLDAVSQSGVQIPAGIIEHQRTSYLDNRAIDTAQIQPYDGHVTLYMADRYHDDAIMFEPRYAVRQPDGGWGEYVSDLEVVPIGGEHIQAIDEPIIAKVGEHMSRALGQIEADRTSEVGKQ

Measurements from “University of Dundee, Small-Polar-MMV Screening Library” (2021), ChEMBL document CHEMBL3988442.

Leishmania in macrophages: 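Cell assay of Leishmania donovani living inside macrophages; the read-out is not stated. Tested at 30 µM. The record gives no direction; compounds that gave an IC50 in retests scored well above the rest, so higher reads as stronger inhibition. About 69,000 compounds were tested under these conditions; 1.5% (about 1,000) showed 50% or more at least once.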
Toxoplasma: 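Assay of Toxoplasma gondii numbers, read through their beta-galactosidase reporter with a colour substrate. Compounds at 10 µM. The record gives no direction; the compounds picked for IC50 retests had high values, so higher reads as fewer parasites. Of about 67,000 compounds tested this way, about 260 (0.38%) reached 50% or more in at least one test.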
ClpP1P2: 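Protease assay of ClpP1P2, read by the AMC dye that it sets free. Target: ClpP1P2, Mycobacterium tuberculosis (UniProt P9WPC5 and UniProt P9WPC3). Tested at 50 µM. Higher reads as stronger inhibition, judged from the few compounds that gave an IC50. Most other retested compounds had strongly negative values. Of about 69,000 compounds tested this way, about 10 (0.015%) reached 50% or more in at least one test.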
T. brucei: 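Whole-parasite assay of Trypanosoma brucei over 72 hours; the read-out is not stated. Tested at 30 µM. Higher reads as stronger inhibition (inferred: compounds with an IC50 in retests scored well above the rest). Values scatter widely below zero; nearly all retest evidence comes from the higher of the two concentrations used. About 64,000 compounds were tested under these conditions; 1.5% (about 940) showed 50% or more at least once.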
Pks13 thioesterase: 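Enzyme assay of the thioesterase domain of polyketide synthase 13; the read-out is not stated. Target: Polyketide synthase Pks13, Mycobacterium tuberculosis (UniProt I6X8D2). Concentration: 30 µM. The record gives no direction; the compounds picked for IC50 retests had high values, so higher reads as stronger inhibition. Size under these conditions: about 67,000 compounds, about 300 of them at 50% or above in at least one test.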

The filed quantity is “Percent Effect” (%). The record does not define 0% and 100%; most values in the screen are far below 50% and negative numbers occur (in some assays of this library far below -100). Compounds were drawn at random from those tested, without regard to their results. A dash means the value is not listed here; it may have been measured.

Cc1nc(CN2CCCN(C(=O)c3ccn(C)c(=O)c3)CC2)cs1 read Leishmania in macrophages: -8.863%; Toxoplasma: 3.562%; ClpP1P2: 11.79%; T. brucei: -16.94%; Pks13 thioesterase: -6.76%.
CCN(C(=O)c1cc(C)oc1C)C1CC1 read Leishmania in macrophages: -1.978%; Toxoplasma: -1.277%; ClpP1P2: 1.855%; T. brucei: -4.494%; Pks13 thioesterase: -40.65%.
CCc1cc(N(C)Cc2cc[nH]n2)n2nc(C)c(C)c2n1 read Leishmania in macrophages: 8.855%; Toxoplasma: 10.02%; ClpP1P2: -13.23%; T. brucei: 23.97%; Pks13 thioesterase: 6.726%.
N#Cc1ncn(CCC(=O)Nc2ccc(F)c(F)c2)n1 read Leishmania in macrophages: 21.08%; Toxoplasma: 5.727%; ClpP1P2: 12.14%; T. brucei: -47.81%; Pks13 thioesterase: -6.045%.
Cc1ccccc1N1CC2(CCN(c3nncs3)C2)CC1=O (stereo not shown) read Leishmania in macrophages: -1.961%; Toxoplasma: 26.07%; ClpP1P2: -17.16%; T. brucei: -17.29%; Pks13 thioesterase: -9.843%.
COc1cccc(-c2nc(C)c(C(=O)NCCC(=O)O)s2)c1 read Leishmania in macrophages: -6.377%; Toxoplasma: -5.157%; ClpP1P2: -5.757%; T. brucei: -31.35%; Pks13 thioesterase: 4.547%.
Cc1ccc(CC2COCCN(Cc3ccccc3)C2)nc1 (stereo not shown) read Leishmania in macrophages: -0.3835%; Toxoplasma: -1.593%; ClpP1P2: -22.33%; T. brucei: -1.109%; Pks13 thioesterase: 4.524%.
CCc1n[nH]c(C(=O)NCCn2nccc2C)c1C read Leishmania in macrophages: 3.336%; Toxoplasma: 11.43%; ClpP1P2: -3.728%; Pks13 thioesterase: -3.243%.
Cc1nc(CN2CCN(C(=O)CCc3nc(C(C)(C)C)no3)CC2)cs1 read Leishmania in macrophages: 12.75%; Toxoplasma: 3.167%; ClpP1P2: -13.44%; T. brucei: -37%; Pks13 thioesterase: -4.401%.
O=C([C@H]1CCCO1)N1CCc2ncnc(C3CC3)c2CC1 read Leishmania in macrophages: 11.02%; Toxoplasma: -16.55%; ClpP1P2: -0.5597%; T. brucei: -3.014%; Pks13 thioesterase: -438.3%.
Cc1cccc(N2CC3(CCN(Cc4nccn4C)C3)CC2=O)c1 (stereo not shown) read ClpP1P2: -8.823%; Pks13 thioesterase: -1.252%.
CN(C)C(=O)[C@H]1C[C@@H]2CN(S(=O)(=O)c3ccccc3)C[C@H]1O2 read ClpP1P2: -0.4172%; Pks13 thioesterase: -17.3%.
Cc1noc(C)c1CN(C)C(=O)C1CCCCN1CC(C)C (stereo not shown) read Leishmania in macrophages: -6.849%; Toxoplasma: 1.016%; ClpP1P2: -10.23%; T. brucei: -18.05%; Pks13 thioesterase: 6.484%.
CCCNC(=O)CNc1cc(C(=O)N2CCSCC2)ccc1C read Leishmania in macrophages: 16.52%; Toxoplasma: 5.503%; ClpP1P2: -1.774%; T. brucei: -28.82%; Pks13 thioesterase: -17.33%.
Cc1ncc(-c2ccccn2)c(CCNC(=O)C2CCCC2)n1 read Leishmania in macrophages: 1.209%; Toxoplasma: 16.02%; ClpP1P2: -8.937%; T. brucei: -15.69%; Pks13 thioesterase: -27.79%.
COc1ccccc1CNC(C)c1ccc2[nH]c(=O)[nH]c2c1 (stereo not shown) read Leishmania in macrophages: 33.2%; Toxoplasma: -9.707%; ClpP1P2: -14.49%; T. brucei: -8.302%; Pks13 thioesterase: -1.831%.
CC(C)c1nccn1C1CCCN(C(=O)c2nccnc2N)C1 (stereo not shown) read Leishmania in macrophages: 12.87%; Toxoplasma: 0.2529%; ClpP1P2: -2.479%; T. brucei: -23.6%; Pks13 thioesterase: -9.959%.
CCO[C@@H]1CO[C@@]2(CCCN(S(=O)(=O)c3cccnc3)C2)C1.O=C(O)C(F)(F)F read Leishmania in macrophages: -4.198%; Toxoplasma: -5.341%; T. brucei: -9.726%.
[H][C@]12CCN(C(=O)c3cnoc3C)[C@@]1([H])CCC(=O)N2CC1CCOCC1 read Leishmania in macrophages: -11.36%; Toxoplasma: 0.9636%; T. brucei: -39.02%.
Cc1cnn(CC2CCCN2C(=O)c2ccc(-n3cccn3)nc2)c1 (stereo not shown) read Leishmania in macrophages: 22.76%; Toxoplasma: 6.26%; ClpP1P2: -6.357%; T. brucei: -10.64%; Pks13 thioesterase: -7.606%.
Cc1ccc(CCNc2nc(-c3ccncc3)nc3c2CCNCC3)o1 read Leishmania in macrophages: -30.63%; Toxoplasma: 2.036%; ClpP1P2: -5.904%; T. brucei: -212%.
CNCC(=O)N1CCCC(c2ccnc(Nc3cnccn3)n2)C1 (stereo not shown) read Leishmania in macrophages: 26.73%; Toxoplasma: -1.897%; ClpP1P2: 7.821%; T. brucei: -4.384%; Pks13 thioesterase: 8.471%.

For reference, 2 entries once more:

structure,Leishmania in macrophages,Toxoplasma,ClpP1P2,T. brucei,Pks13 thioesterase
CCc1n[nH]c(C(=O)NCCn2nccc2C)c1C,3.336%,11.43%,-3.728%,-,-3.243%
CNCC(=O)N1CCCC(c2ccnc(Nc3cnccn3)n2)C1 (stereo not shown),26.73%,-1.897%,7.821%,-4.384%,8.471%